± gives the half width of the 95% confidence interval. For many entries, trypsin and chymotrypsin gave values far apart.

Series [1] is described as follows: folding stability dG unfold from trypsin proteolysis; higher = more stable. The method, boiled down: (§1)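 Unfolding free energy was derived, per protease or combined, against a sequence-predicted unfolded-state K50 and a shared folded-state K50, starting from K50 inferred by Bayesian fitting of sequencing counts. Digestion with trypsin and chymotrypsin was carried out on designed mini-proteins under 80 residues without cysteine in a PA-tagged cDNA display construct. Only designs with AlphaFold2 dimer inter-PAE above 15 were kept.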

Series [2] can be described thus: folding stability dG unfold (combined trypsin and chymotrypsin); higher = more stable. Put shortly: as §1
Series [3] can be described thus: folding stability dG unfold from chymotrypsin proteolysis; higher = more stable. The method, boiled down: as §1

In the case of “SAGGSAGGSAGGMTLRLKLRLTFTNEDGSTSELELELELEFEPEPVLVRTKDGRTRLLDSAGGSAGGSAGGS [r10_330_TrROS_Hall]”, the “folding stability dG unfold” value in series [1] stood at 1.1 ± 0.13 kcal/mol; in series [2], 3.63 ± 0.18 kcal/mol; in series [3] it was 4.24 ± 0.092 kcal/mol.

“SAGGSAKKPKPPKVRIKVEIDGKTYEFEIPAEAIEKIEYDEENKEVTIYLKENGKTFKAKIVEVEPSAGGSA [r15_495_TrROS_Hall]”: the “folding stability dG unfold” value in series [1] amounted to 1.44 ± 0.027 kcal/mol; in series [2], 3.08 ± 0.086 kcal/mol; in series [3], 3.5 ± 0.036 kcal/mol.

Consider “SAMTVTVVLEDLENLTAEELEEALREAGIKEVKIVKIERVEDKVVITVEVEPGMTVEEVEEALRKVLEESAG [r14_657_TrROS_Hall]”, for which the “folding stability dG unfold” value in series [1] came to 3.81 ± 0.21 kcal/mol; in series [2], 3.12 ± 0.14 kcal/mol; in series [3] it was 0.987 ± 0.1 kcal/mol.

For “SAGGSASSISLPAPDLVTVEEEEVPETTVVRRRAPDGTVLEVTVHPEPVVEVRRPGTGEPVAVRPESAGGSA [r15_656_JUSTAS]”, the “folding stability dG unfold” value in series [1] was -1.2 ± 0.17 kcal/mol; in series [2] it was 0.966 ± 0.031 kcal/mol; in series [3] it was 1.458 ± 0.011 kcal/mol.

With “SAGMNVVEISEDPKGYLHVVVKVPPSVSIEEVKEALEKELGLKITEVEVEPTPDGIVIKFTLEIPKEKKSAG [r5_774_JUSTAS]”, the “folding stability dG unfold” value in series [1] came to 0.415 ± 0.11 kcal/mol; in series [2], 3.65 ± 0.32 kcal/mol; in series [3], 4.04 ± 0.13 kcal/mol.

Take “SAGGMVIETETDPETGVTYIKVKFPETGEEATLTYDPETNVWTVTGKSEKFKEFLKKLGVKNPKLIISSAGG [r13_511_JUSTAS]”: the figures for the “folding stability dG unfold” value in series [1], in series [2] and in series [3] were 1.67 ± 0.098 kcal/mol, 3.86 ± 0.17 kcal/mol and 4.42 ± 0.12 kcal/mol, respectively.

“SAGGSAGGSAGTVTVTRLPNGEYLVTTTEPVLAPTADGTPVTRTGVTVTTLSPEELAAAASAGGSAGGSAGG [r11_464_JUSTAS]”: the “folding stability dG unfold” value in series [1] was -0.88 ± 0.56 kcal/mol; in series [2], 0.966 ± 0.069 kcal/mol; in series [3] it was 1.47 ± 0.034 kcal/mol.

On to “SAGGNWEIEDRKEETIPFNIKFEVYVFKHDDHWFIFIRIEIVIPPIPPPPPPPPPPISPEDNKKNKNKSAGG [r13_760_TrROS]”, for which the “folding stability dG unfold” value in series [1] is -0.349 ± 0.56 kcal/mol; in series [2], 3.61 ± 0.17 kcal/mol; in series [3], 3.88 ± 0.06 kcal/mol.

On to “SAGGKEWEKIAEIKLKDGSTITFYRNKNGELVVVVEDKKTKKKIVITVPKNMSLEEVLNKIKELLKKKSAGG [r13_624_TrROS_Hall]”, for which the “folding stability dG unfold” value in series [1] was 2.18 ± 0.11 kcal/mol; in series [2] it was 4.95 ± 0.34 kcal/mol; in series [3] it was 5.21 ± 0.31 kcal/mol.

“SAGGSAMTIKIKLPDGKIITIKAKSIEEAIEALKKLTGYEITSVEIVKIDKEKGEIYIKIKIKKKKSAGGSA [r15_447_TrROS_Hall]”: the “folding stability dG unfold” value in series [1] amounted to 2.32 ± 0.12 kcal/mol; in series [2] it was 4.09 ± 0.22 kcal/mol; in series [3], 4.81 ± 0.26 kcal/mol.

Turning to “SAGGSAGGSAELELRLEVEVLVRNEDGSLSRRRFELTLRLEFKLPPLSEEERKRLLEELLKSAGGSAGGSAG [r3_252_TrROS_Hall]”, the entries for the “folding stability dG unfold” value in series [1], in series [2] and in series [3] were 3.49 ± 0.19 kcal/mol, 5.36 ± 0.25 kcal/mol and 5.81 ± 0.23 kcal/mol, respectively.

As to “SMAEVNVPLTVEYDPKTGKYYATFTIQFPDSTVPVKKEFTDISEIKKFVEELKKKYSEENPDNVRIDIEKSA [r9_1148_JUSTAS]”, the “folding stability dG unfold” value in series [1] was found to be 1.61 ± 0.071 kcal/mol; in series [2], 3.46 ± 0.32 kcal/mol; in series [3] it was 3.73 ± 0.18 kcal/mol.

Take “SAGGSAGGSAGEMIDVKIVVKTEDGPVTAVIDVKPDELDEVLKEAEEIPDFEVVDADLGDSAGGSAGGSAGG [r11_692_TrMRF]”: the “folding stability dG unfold” value in series [1] is -0.535 ± 0.24 kcal/mol; in series [2], 1.1 ± 0.11 kcal/mol; in series [3], 1.48 ± 0.1 kcal/mol.

For the sequence “SATLADYLKKNGYRIKIDVEIREINPMYTPDGGNHMMFQISVKIEIEPPPPPPPPPDPEDMRDPDGKPRSAG [r14_569_TrROS]”, the “folding stability dG unfold” value in series [1] turned out to be 1.65 ± 0.12 kcal/mol; in series [2], 3.35 ± 0.26 kcal/mol; in series [3] it was 3.74 ± 0.098 kcal/mol.

On to “SAGGSAGGLEIEWDIERHPNGWLTVGWRVWGPNGRSREITLTIQVVPPMPANDPEEMAEANGIDSAGGSAGG [r6_293_TrROS]”, for which the “folding stability dG unfold” value in series [1] was 2.48 ± 0.083 kcal/mol; in series [2], 3.93 ± 0.23 kcal/mol; in series [3] it was 4.73 ± 0.13 kcal/mol.

Regarding “SAGGSELTEVRSVELPDAVVRVYRPPDGTYVIEVTFGGKPVVLELPPDTTEEEIEERIEELLKKLRSAGGSA [r2_243_JUSTAS]”, the “folding stability dG unfold” value in series [1] was determined as 2.92 ± 0.074 kcal/mol; in series [2], 5.01 ± 0.099 kcal/mol; in series [3], 5.25 ± 0.064 kcal/mol.

Turning to “SAGMYVVTITFTNGEVHVVEFPPGLSEEELEALAEEVAERIEKELGLPDNPVSKIEITPVDDDPARRRASAG [r5_377_JUSTAS]”, the “folding stability dG unfold” value in series [1] worked out at 0.222 ± 0.043 kcal/mol; in series [2], 2.88 ± 0.067 kcal/mol; in series [3], 3.36 ± 0.038 kcal/mol.

As for “MKKVLVFNLGNDPALAKEILEKLKEEGYEVEVVVFTTEEEKKKAEELAKKTEEVIVIERPPEPPKYPENRVS [r1_497_JUSTAS]”, the “folding stability dG unfold” value is -0.222 ± 0.16 kcal/mol in series [1], 1.64 ± 0.11 kcal/mol in series [2] and 2.1 ± 0.086 kcal/mol in series [3].

“SAGGSAGGSKVTLTLPENAKVEIVYDEETGKLYIYIEVDGELYKFTFDKKTNKVTVERFKLKDSAGGSAGGS [r12_368_TrROS_Hall]”: the entries for the “folding stability dG unfold” value in series [1], in series [2] and in series [3] were 2.81 ± 0.14 kcal/mol, 4.55 ± 0.13 kcal/mol and 4.82 ± 0.055 kcal/mol, respectively.

With “SAGGTITIELPDGVKVTITYDKDTGTITITVEVNGKTYVAKAKIVKNKDGSYTIEIEIYSAEELKKASAGGS [r16_85_TrROS_Hall]”, the “folding stability dG unfold” value in series [1] is 1.27 ± 0.032 kcal/mol; in series [2] it was 3.1 ± 0.14 kcal/mol; in series [3], 3.56 ± 0.046 kcal/mol.

Take “SAKVRIVVTDDMVFVRTKDGKVLMFRTREEAEAAAKALFPEDVEIIVLDPSSPEVRKLLEELERLLEGKSAG [r14_235_TrROS_Hall]”: the “folding stability dG unfold” value turned out to be 2.19 ± 0.04 kcal/mol in series [1], 4.24 ± 0.11 kcal/mol in series [2] and 4.73 ± 0.086 kcal/mol in series [3].

For “SAGGSAGGSTLEFKVKSKEEIEELKKKYPDVEIYEDPETKEYYVKVKLKPKKPLSPEDIKAKGSAGGSAGGS [r20_191_TrMRF]”, the “folding stability dG unfold” value in series [1] amounted to 0.86 ± 0.073 kcal/mol; in series [2], 2.5 ± 0.073 kcal/mol; in series [3], 2.9 ± 0.033 kcal/mol.

In the case of “SATVTVTVTATVRERRLELDEDGALRAETRTETVTATATFTLRPPPPPPAPPELVRDPATGEWVPREERSAG [r14_122_TrROS_Hall]”, the figures for the “folding stability dG unfold” value in series [1], in series [2] and in series [3] were 1.51 ± 0.075 kcal/mol, 3.13 ± 0.47 kcal/mol and 3.96 ± 0.14 kcal/mol, respectively.

Consider “SAGGSAGGSAGKKKKKKKKKKIKKVTVTMKFVDKETNEVVEAEITVNKDGTITVKVKKYPSAGGSAGGSAGG [r11_463_TrROS_Hall]”, for which the results for the “folding stability dG unfold” value in series [1], in series [2] and in series [3] were 2.09 ± 0.2 kcal/mol, 1.29 ± 0.43 kcal/mol and -0.214 ± 0.43 kcal/mol, respectively.

In the case of “SAGGSAGGSAGGSWIIIPFTFTIKMEFWDPDNPGKPVEMTHKITIYFAIKIPPPPPGDPSAGGSAGGSAGGS [r4_231_TrROS]”, the “folding stability dG unfold” value turned out to be 2.72 ± 0.16 kcal/mol in series [1], 5.35 ± 0.37 kcal/mol in series [2] and 5.86 ± 0.29 kcal/mol in series [3].

Take “SAGGSAGGSAGGLATFDDGKVVEFSTLEELEAYLKGVPVKRVRIFDRVKGGEVEVEVNPSAGGSAGGSAGGS [r10_1191_TrMRF]”: the “folding stability dG unfold” value was -0.791 ± 0.21 kcal/mol in series [1], 1.12 ± 0.065 kcal/mol in series [2] and 1.6 ± 0.062 kcal/mol in series [3].

With “SAGGSIYIINPDNGWFVEIDVQPDPDGKYTVKIEIYFMEPEPDPDGNPKWKMQPTEMEITIPPGDPITSAGG [r13_561_TrROS]”, the “folding stability dG unfold” value in series [1] was 0.858 ± 0.11 kcal/mol; in series [2], 2.4 ± 0.17 kcal/mol; in series [3], 3.09 ± 0.064 kcal/mol.

On to “EPEITEVYPLVIPLDGVPLVINIYKIPETGTYIAVIERFPYEPGGKPINPERIVREFPSLEDVLDFIKALAS [r1_288_TrMRF]”, for which the results for the “folding stability dG unfold” value in series [1], in series [2] and in series [3] were 3.13 ± 0.062 kcal/mol, 5.2 ± 0.092 kcal/mol and 5.29 ± 0.054 kcal/mol, respectively.

As for “SAGGTLKDLGITIEVTSVERYPDNPGQWVRYDYKVKIPDGWKIVIDIWIPPDGSIQMMIEIIPPGEPSAGGS [r8_216_TrROS]”, the “folding stability dG unfold” value in series [1] was 2.59 ± 0.26 kcal/mol; in series [2] it was 4.62 ± 0.43 kcal/mol; in series [3], 4.96 ± 0.17 kcal/mol.

As to “SAGGSAGGSAGAETRTLKPGDYWVVSIRDPVTGKVYTFVVKEDEIEVLNASAYPVAVHEGSAGGSAGGSAGG [r11_741_TrMRF]”, the “folding stability dG unfold” value in series [1] came to 0.648 ± 0.058 kcal/mol; in series [2], 2.35 ± 0.076 kcal/mol; in series [3], 2.7 ± 0.034 kcal/mol.

Take “SMEKTIEIPIPEGYKITVTIYNEEEVKIEIYLPESNPKIKKEGSIEKIAEKIAKELGIDPKKVKVSYKKYSA [r9_401_JUSTAS]”: the “folding stability dG unfold” value in series [1] worked out at 1.13 ± 0.044 kcal/mol; in series [2] it was 2.84 ± 0.085 kcal/mol; in series [3], 3.41 ± 0.049 kcal/mol.

In the case of “SAGGSAGGSAGGSATIVIFFKDYVIVIKIKWEFDPDNGKYKYEIEIEIFPMPPGEPAPISAGGSAGGSAGGS [r4_215_TrROS]”, the “folding stability dG unfold” value came out at 2.09 ± 0.2 kcal/mol in series [1], 3.9 ± 0.53 kcal/mol in series [2] and 4.14 ± 0.44 kcal/mol in series [3].

As to “SAGGSAGGSAGGRVRPGGRVRLRFRFEAPVYRRDPVSGAWTPEGVGEVEFELEVEVPDESAGGSAGGSAGGS [r10_1115_TrMRF]”, the “folding stability dG unfold” value in series [1] is 2.09 ± 0.055 kcal/mol; in series [2], 3.55 ± 0.093 kcal/mol; in series [3], 4.26 ± 0.055 kcal/mol.

With “SAGKKKKKIKVKIIVNGKEIEIEMTLEELKKLVKEGKLEITDVKVEKGEIYIIIKPKPPEVDKKTGKLKSAG [r5_868_TrROS_Hall]”, the “folding stability dG unfold” value worked out at 0.293 ± 0.12 kcal/mol in series [1], 1.9 ± 0.12 kcal/mol in series [2] and 2.42 ± 0.049 kcal/mol in series [3].

Take “SAGGMTIYVPKENVEKVLKELKKKGFKPEKVEKKGDYVVVKFKKKTKDKEYELTIIFLPPDNPENPKSAGGS [r8_307_TrMRF]”: the “folding stability dG unfold” value worked out at 1.92 ± 0.053 kcal/mol in series [1], 4.32 ± 0.12 kcal/mol in series [2] and 4.52 ± 0.067 kcal/mol in series [3].

These data come from the supplement of paper PMC12764529.
